Experimental data published in paper PMC6901238.

Amino acid sequences for entries named in this document (tags omitted). A change or cut given only in a name is not applied to a line headed by its entry.
UniProt A0A1Y0B6H8: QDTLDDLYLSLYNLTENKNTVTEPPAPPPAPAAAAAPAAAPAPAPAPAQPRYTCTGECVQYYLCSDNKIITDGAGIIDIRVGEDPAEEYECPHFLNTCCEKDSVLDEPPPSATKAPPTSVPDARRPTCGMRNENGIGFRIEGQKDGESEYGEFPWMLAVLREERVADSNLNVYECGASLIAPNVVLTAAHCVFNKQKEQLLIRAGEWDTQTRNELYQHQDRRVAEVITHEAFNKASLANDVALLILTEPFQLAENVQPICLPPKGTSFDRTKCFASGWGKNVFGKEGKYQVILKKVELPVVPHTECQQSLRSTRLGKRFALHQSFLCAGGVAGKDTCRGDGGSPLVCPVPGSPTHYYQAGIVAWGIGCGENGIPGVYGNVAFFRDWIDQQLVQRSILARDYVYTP

Biological target: T1, CLIPA28 (Anopheles gambiae (endogenous in hemolymph))
T1 sequence: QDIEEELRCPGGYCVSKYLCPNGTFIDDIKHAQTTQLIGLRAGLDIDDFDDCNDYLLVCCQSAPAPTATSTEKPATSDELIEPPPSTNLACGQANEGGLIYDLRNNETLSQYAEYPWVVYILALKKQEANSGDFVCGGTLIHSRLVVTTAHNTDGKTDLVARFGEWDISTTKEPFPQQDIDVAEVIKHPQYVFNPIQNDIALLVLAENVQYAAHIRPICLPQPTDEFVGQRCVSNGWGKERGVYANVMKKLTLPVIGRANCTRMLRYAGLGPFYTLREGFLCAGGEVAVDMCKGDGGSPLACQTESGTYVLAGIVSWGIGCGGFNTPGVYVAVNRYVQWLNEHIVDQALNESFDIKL
Assay: affinity purification with mass spectrometry; endogenous CLIPA28 precipitated with 4 ug purified CLIPA28 antibody cross-linked to beads (Pierce crosslink Magnetic IP/co-IP kit); cell-free hemolymph of approximately 900 female mosquitoes 48 hrs after spraying with B. bassiana conidia; overnight at 4 C; eluted proteins identified by mass spectrometry

Molecule: CLIPD1
- binding: binds

Molecule: CLIPA2
- binding: binds

Molecule: CLIPA14 (from UniProt A0A1Y0B6H8)
- binding: binds

Molecule: CLIPB17
- binding: no binding

Molecule: CLIPB13
- binding: binds

Molecule: CLIPB5
- binding: binds

B1: CLIPB14 (protein, UniProt Q9NAS8 25-375)
chain: QEHKPCTTPNGTAGRCVRVRECGYVLDLLRKDLFAHSDTVHLEGLQCGTRPDGGALVCCPAFVNEPNCGPSVFGVRIIGGNDTELGEFPWMALLRFQARNRKIHGNCGASLVSKRFVLSAAHCFTAAKSKGWKIHSVRVAEWNFMNHRGSKDCKQVKGYDVPICRKDYDVARFVQHPEYRVNAGVHVNDIVLIELAADVEYNVFVAPICLPVSNDTAQLPWGSSDDPEIEYTAAGWGSTESGKESTGMSYQLKQINLRAFNKERCKKLFQVPSGVGVGLGHICAGGIRDEDTCHGDSGGPLMEAVGGVWYLAGITSFGWPRCGRDGVPGVYTNISHYMGWLEREMFRGILA
- binding: no binding

B2: serine protease inhibitor 2 (SRPN2) (protein, UniProt Q7QIJ8 22-409)
chain: QQDVHGPFQGQRQNEFDLMFVKEIFKNHNSNVVLSPFSVKILLTLIYEASDTSFGNAVSNTKRELSSVIQNDNIDHTRSYYKQLLESAQQDNKDYDLNIATNFFVDDFIEVINKYQQIANTHYHAMLEKVSYSNPTQTAATINNWVSEHTNGRLREIVTPDSLEGAVITLVNVIYFKGLWTYPFPEVANNVKPFYGTRGKPTNAQYMEQNGQFYYDNSADLGAQILRLPYRGNKLAMYFILPNPDNTVNQVLDRINSASLHQALWYMEENEVNVTLPKFKFDFSEQLNEPLQQVGIREIFSQNASLPLLARGRGARDEVRVSRIFQKAGITINELGSEAYAATEIQLVNKFGGDGVQIFNANRPFIFFIEDETLGTMLFAGKIENPVF
- binding: binds

B3: CLIPB4 (protein, UniProt Q7PEV7 25-360)
chain: LELGQDCVNPVGEAGKCVLFRECQPLVDIYNKPVNTPDDTQFLTESRCGLYERKTLVCCAGVRSKGKTSLPESPNCGVQLTDRVIGGQPTKIDEFPWTALIEYEKPNGRFGFHCGGSVINERYILTAAHCITSIPRGWKVHRVRLGEWDLSSTTDQEDDFYADAPIDLDIEKIIVHPGYNLQDKSHHNDIALIRFNREINYSSTISAICLPLSNSLRNRKHAGLSSYAAGWGKTETASASQKKLKVELTVVDVKDCSPAYQRNGISLDSTQMCAGGIRGKDTCSGDSGGPLMRQMSGSWYLIGVVSFGPQKCGAPGVPGVYTNVAEYVDWIKDNIY
- binding: binds

B4: complement-like protein TEP1 (protein, UniProt Q9GYW4 22-1340)
chain: LLVVGPKFIRANQEYTLVISNFNSQLSKVDLLLKLEGETDNGLSVLNVTKMVDVRRNMNRMINFNMPEELTAGNYKITIDGQRGFSFHKEAELVYLSKSISGLIQVDKPVFKPGDTVNFRVILLDTELKPPARVKSVYVTIRDPQRNVIRKWSTAKLYAGVFESDLQIVPTPMLGVWNISVEVEGEELVSKTFEVKEYVLSTFDVQVMPSVIPLEEHQAVNLTIEANYHFGKPVQGVAKVELYLDDDKLNQKKELTVYGKGQVELRFDNFAMDADQQDVRVKVSFIEQYTNRTVVKQSQITVYRYAYRVELIKESPQFRPGLPFKCALQFTHHDGTPAKGITGKVEVSDVGFETTTTSDNDGLIKLELQPSEGTEQLGINFNAVDGFFFYEDVNKVETVTDAYIKLELKSPIKRNKLMRFMVTCTERMTFFVYYVMSKGNIIDAGFMRPNKQTKYLLQLNATEKMIPKAKILIATVAGRTVVYDYADLDFQELRNNFDLSIDEQEIKPGRQIELSMSGRPGAYVGLAAYDKALLLFNKNHDLFWEDIGQVFDGFHAINENEFDIFHSLGLFARTLDDILFDSANEKTGRNALQSGKPIGKLVSYRTNFQESWLWKNVSIGRSGSRKLIEVVPDTTTSWYLTGFSIDPVYGLGIIKKPIQFTTVQPFYIVENLPYSIKRGEAVVLQFTLFNNLGAEYIADVTLYNVANQTEFVGRPDTDLSYTKSVSVPPKVGVPISFLIKARKLGEMAVRVKASIMLGHETDALEKVIRVMPESLAQPKMDTSFFCFDDYKNQTFPFNLDINKKADNGSKKIEFRLNPNLLTMVIKNLDNLLAVPTGCGEQNMVKFVPNILVLDYLYATGSKEQHLIDKATNLLRQGYQNQMRYRQTDGSFGVWEKSGSSVFLTAFVATSMQTASKYMNDIDAAMVEKALDWLASKQHSSGRFDETGKVWHKDMQGGLRNGVALTSYVLTALLENDIAKVKHAVVIQNGMNYLSNQLAFINNPYDLSIATYAMMLNGHTMKKEALDKLIDMSISDNNKKERYWGTTNQIETTAYALLSFVMAEKYLDGIPVMNWLVNQRYVTGSFPRTQDTFVGLKALTKLAEKISPSRNDYTVQLKYKKNTKYFNINSEQIDVQNFLEIPEDTKKLEINVGGIGFGLLEVIYQFDLNLVNFEHRFKLDLEKQNTGSDYELRLRVCANYIPELTDSQSNMALIEVTLPSGYVVDRNPISEQTTVNPIQNMEIRYGGTSVVLYYYKMGTERNCFTVTAYRRFKVALKRPAYVVVYDYYNTNLNAIKVYEVDKQNVCEICEEEDCPAECKK
- binding: binds

B5: CLIPA8 (protein, UniProt A0A1S4H5S2 26-363)
chain: QNDGSDELQECPGGFCSPKYLCPNGTYNEANAQNQEIIMLRFGEEDVCQDYMQVCCSNATSMRYELVTNNEPVEYGCGISNPGGLIYQVEGNRTYAQYGEFPWVVAILEAFYSSNEQQFTYVGGGTLIHPRFVVTAAHIFNKTENLVASFGEWDMNRDENVYPKQNIDIDRTIIVHPEYNSVGLLNDIALAQLKQNVVYDKHIRPICLPNPTDRFDDQLCISTGWGIEALTSAYANVLKRVDLPVIARASCKKLFAETRLGPFFRLHKSVLCAGGEEGADMCDGDGGSGLACPNESGAYVLAGIVSWGLSCHQQNVPGAYVNVARFVTWINATIEGIL
- binding: no binding

B6: SPCLIP1 (protein, UniProt A0A1S4HE51 40-416)
chain: NFPVGKFRRCNNNKGICVSREQCLNGQINTVGHTQIEPRLLNDDDIDECDVYGMQCCNLPSTNVPADSDEEEQEEEEKEKKGGTVTTTTTEEPDDPDWSRQCGQRTDVTERADQDGETNRFEFPWSVALFSKAQFFGKVRKEFLCGGTLIDDYLVLTAARCVNQKDRNTLVVQLGRWNLDAGKESRMQEIAVEELIIHRGYVLSSHLHNVALLVLANGAQLGRAANRVCLPDHSVQFGPDTLCYVVGWSNSPSPNTSNRQLKLRSMVAPVQECTATIRRSTGAWDFRLLSENICTTYLDDTVPCERAPGSGFVCESPTLPGQYFLVGIASYAVRQCHKYRAHDVFVHVPDYIEWVDGHVVNQSRQTSFYRPDPISFD
- binding: no binding

B7: CLIPB9 (protein, UniProt F5HKX0 27-401)
chain: QQQQCTTPTRLRGRCISIYECDSILDYFKQRILTWEEREFLRKSQCTGATSGRQPFVCCPGNGSKPVVAPATTVPAGTASTTPAGPAATAPSGDAALADQLVGGLLPNPKKNECGVSIGMRIYGGQNADIDEFPWLALLQYENRKGERKYSCGGSLINRRYVLTAAHCVIGEVERKEGKLVSVRLGEYNTKTEIDCVTEEQEEICADPPIDAGIESVIVHPGYQDMAHADDIALLRLAQSIEYTSFVQPVCLPLTDFRASKTGEVNFVTGFGRTLQESRSAVKQKLGIKVYDHARCQEKYATKNSSITTNQLCAGGEYAKDSCHGDSGGPLMKLQKVWYLEGIVSYGNRCGLEDWPGVYTHVPAYMAWVRSNIKE
- binding: no binding

B8: CLIPB8 (protein, UniProt Q8MZM7 25-405)
chain: APMDTDDRPVWDSIRLCDIPNEPNPGQCMLPAECVAYGKINDVSSLSSIERFSFIKQIQCNGSDTVPYVCCPRDSDAYREPYVNETMVPKNRVASRIAFDADSCGIQSYVAKIRGGQLAEIDEFPWMAMLLYERDNNALTQGCGGALISRTYVITAAHCVTGKNFQQTKGRLKFVRLREYNIHTNPDCVYENDLKDCSDDMIDLVPQAVIPHPEYDSESSNQQHDIALIRIEQTPPFTDFLRSICLPEQNFESSATPGKKLSVSGWGRTDIFKDNLGPDVLSPIKLKLSLPYVEREKCSKTFRPWSFALGPGQMCAGGERAKDTCAGDSGSPLMSYDMKRAIWYITGIVSLGVRGCGVEGLPGVYTNVHHYLPWIKMYTGA
- binding: binds

No constants are given. Whether binding was seen depends on the method and setting. In cells and extracts the contact can be indirect. These calls come from enrichment with a bait or labelling near it, and not all partners need be listed. No binding means not detected with the bait.
